PubChem BioAssay AID1159592 – NIAID | 2016
The deposit covers 756 reagents; below is a random part of them. Over the whole deposit, 147 (19%) were called active. 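Active covers both loss and gain of p65 entry; negative z means weaker NF-kB activation, positive means more nuclear p65.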 The numbers tell different reagents against one gene apart. No sequences are given here. The record does not give: the amount of reagent.

- Test: 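Which core TLR components make p65 move nuclear in R848-treated mouse macrophages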
- Cell system: RAW264.7 macrophages from mouse bearing reporters for p65 (GFP) and the Tnf promoter (mCherry)
- Reagents: single siRNA against mouse genes
- Duration: 48 to 72 hours after siRNA transfection
- Challenge: R848 TLR ligand for 40 minutes before fixation; dose not given
- Detection: 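Nuclear over cytoplasmic GFP-p65 signal imaged 40 minutes after R848, plate-normalised by median and MAD, given as robust z versus negative controls, mean of replicates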
- Reading the numbers: NF-kB translocation z-score: higher = more p65 moved into the nucleus than in negative-control wells
- Rule for the call: 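a call of active needs an averaged z beyond 1.5 in either direction; tiers of absolute z at 1, 1.5, 2 and 2.5 are also set by the depositor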
- Calls: active = strong change, either direction; inactive = little change

NF-kB translocation z-score, replicate mean, by target gene and reagent
Map2k3: #1 0.244 inactive; #2 -0.271 inactive; #3 -0.0659 inactive; #4 -1.11 inactive; #5 0.595 inactive; #6 -0.165 inactive
Cxcl11: #1 -0.701 inactive; #2 1.15 inactive; #3 -0.306 inactive; #4 -0.115 inactive; #5 -2.5 active; #6 -1.18 inactive
Tbk1: #1 0.418 inactive; #2 0.446 inactive; #3 -0.765 inactive; #4 0.611 inactive; #5 -0.503 inactive; #6 0.62 inactive
Egr1: #1 -0.622 inactive; #2 -0.669 inactive; #3 -0.667 inactive; #4 0.174 inactive; #5 0.675 inactive; #6 0.0317 inactive
Tlr2: #1 -0.323 inactive; #2 -1 inactive; #3 1.11 inactive; #4 0.8 inactive; #5 -0.698 inactive; #6 0.998 inactive
Cd180: #1 -2.97 active; #2 0.588 inactive; #3 1.15 inactive; #4 1.64 active; #5 -2.04 active; #6 -0.246 inactive
Tnfaip3: #1 0.849 inactive; #2 -1.09 inactive; #3 2.43 active; #4 1.58 active; #5 0.64 inactive; #6 1.21 inactive
Itgam: #1 -0.389 inactive; #2 -0.289 inactive; #3 0.0971 inactive; #4 -0.286 inactive; #5 -0.209 inactive; #6 -1.52 active
Egr2: #1 -0.445 inactive; #2 -0.212 inactive; #3 -1.41 inactive; #4 -2.94 active; #5 -0.854 inactive; #6 -0.231 inactive

Targets above whose target name starts with E or e:
NF-kB translocation z-score, replicate mean, by target gene and reagent
Egr1: #1 -0.622 inactive; #2 -0.669 inactive; #3 -0.667 inactive; #4 0.174 inactive; #5 0.675 inactive; #6 0.0317 inactive
Egr2: #1 -0.445 inactive; #2 -0.212 inactive; #3 -1.41 inactive; #4 -2.94 active; #5 -0.854 inactive; #6 -0.231 inactive

The listing continues:
NF-kB translocation z-score, replicate mean, by target gene and reagent
Irf9: #1 -0.898 inactive; #2 -1.39 inactive; #3 0.416 inactive; #4 0.785 inactive; #5 0.356 inactive; #6 -0.0298 inactive
Ptk2b: #1 0.788 inactive; #2 1.25 inactive; #3 0.0247 inactive; #4 0.37 inactive; #5 0.0511 inactive; #6 0.722 inactive
Irak3: #1 -1.1 inactive; #2 -1.48 inactive; #3 -0.462 inactive; #4 -0.77 inactive; #5 -1.64 active; #6 -0.199 inactive
Ccl3: #1 -2.86 active; #2 -0.455 inactive; #3 -0.897 inactive; #4 1.19 inactive; #5 0.124 inactive; #6 -1.59 active
Tradd: #1 -0.392 inactive; #2 -0.29 inactive; #3 -1.55 active; #4 -1.14 inactive; #5 -0.207 inactive; #6 1.44 inactive
Ifnar1: #1 -1.32 inactive; #2 0.637 inactive; #3 -1.47 inactive; #4 1.41 inactive; #5 -0.634 inactive; #6 -1.32 inactive
Sp1: #1 -0.449 inactive; #2 0.96 inactive; #3 -1.44 inactive; #4 0.00132 inactive; #5 -1.24 inactive; #6 -1.13 inactive
Tlr1: #1 0.172 inactive; #2 -0.582 inactive; #3 -0.127 inactive; #4 -0.203 inactive; #5 -0.223 inactive; #6 -0.481 inactive
Traf3: #1 -0.034 inactive; #2 -0.69 inactive; #3 0.486 inactive; #4 -0.711 inactive; #5 -1.58 active; #6 1.24 inactive
Rac1: #1 2.05 active; #2 -0.143 inactive; #3 -2.7 active; #4 -0.197 inactive; #5 -0.513 inactive; #6 -0.141 inactive
